Experimental data reported in paper PMC12036814 (Angewandte Chemie (International Ed. in English), 2025).

Columns and labels:
[1] = cited from earlier work
[2] = test system: mitochondrial ribosomal subunits; design: dose or concentration left out as unconfirmed; details: […] μM, 1 h, 37 °C, HEK-293
Description: incubated in a thermoshaker (600 rpm, 16 h, 37 °C). The digest was stopped by adding 10 μL formic
acid (FA) and vortexing followed by centrifugation (12,000 ×g, 3 min, room temperature). 50 mg
SepPak C18 columns (Waters, Milford, USA, Cat# WAT054960) were equilibrated by gravity flow two
times with 1 mL acetonitrile and three times with 1 mL aqueous 0.1% trifluoroacetic acid (TFA) solution.
Subsequently, the samples were loaded by gravity flow, washed three times with 1 mL aqueous 0.1%
TFA solution and once with 0.5 mL aqueous 0.5% formic acid (F A) solution. Elution of peptides into
new 2.0 mL Protein LoBind Eppendorf tubes was performed by two times addition of 250 μL elution
buffer (80% acetonitrile, 0.5% FA) by gravity flow followed by 250 μL elution buffer by vacuum flow
until all liquid was eluted from the column. The eluates were lyophilized. Before MS measurement the
(brief centrifugation after each step).
Thermal protein profiling (TPP)
The experiment was performed similarly to TPP-TR experiments described by Franken et al. with minor
modifications.5 HEK293 cells were grown in 8 T175 flasks to approx. 80-90% confluency. Per replicate
volume of 0.1 N HCl as vehicle control. Per condition two replicates were used, leading to a total of 8
T175 flasks. The cells were washed with PBS, detached with accutase, the two flask per replicate […]

SMILES: O=C(O)c1cn(C2CC2)c2cc(N3CCNCC3)c(F)cc2c1=O [Ciprofloxacin]
- peak plasma levels ([1]; concentration resembling peak plasma levels): ~75 µM
- regular plasma levels ([1]; concentration resembling regular plasma levels): ~7.5 µM
- thermal stability of mitochondrial ribosomal subunits [2]: destabilized
